This is one part of the list.

The chains behind the UniProt entries cited, without tags or fusion partners.
UniProt Q0JBA9, entry or part of it: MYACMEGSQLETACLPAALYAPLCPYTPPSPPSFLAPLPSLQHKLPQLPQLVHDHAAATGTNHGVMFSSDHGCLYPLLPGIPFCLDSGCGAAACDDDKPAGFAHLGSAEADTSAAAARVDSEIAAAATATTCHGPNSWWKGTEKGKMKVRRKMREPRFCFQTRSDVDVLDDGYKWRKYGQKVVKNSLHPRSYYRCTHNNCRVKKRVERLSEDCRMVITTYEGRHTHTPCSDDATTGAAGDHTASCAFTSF

Results on 42 sequences are retold here after paper PMC7819943, “Rice protein-binding microarrays: a tool to detect cis-acting elements near promoter regions in rice”.

For the experiment, the target named is OsWRKY34 (Oryza sativa, UniProt Q0JBA9 1-250). The experiment is described as follows: protein-binding microarray (RPBM); PBS, 2% BSA, 51.3 ng/ul salmon testes DNA, 50 uM zinc acetate, 200 nM TF, 25 C, 1 h; high values mean tight binding. To be noted: protein: recombinant; tags: N-terminal polyhistidine and DsRed monomer fusion (pET32a); label: CyDye5-dUTP incorporated in the synthesized complementary strand; 3' TTTTT single-stranded linker to array surface; dsDNA, one strand shown. In outline: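 Ni–NTA purification followed expression in E. coli BL21-CodonPlus of transcription factors fused N-terminally to a polyhistidine tag and DsRed. At 200 nM in PBS with 2% BSA, salmon testes DNA and 50 µM zinc acetate, the protein was incubated for 1 h at 25 °C with a custom Agilent array that had been primer-extended with Cy5-dUTP and blocked with 2% BSA. After washing, the array was read on an Axon 4000B scanner. The binding signal is per-feature fluorescence intensity in arbitrary units.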
Consider “GGACGGAGGGGCGGGGTGCGACGCGGACGGCGGCGGCGGGCGGAGTCACCTAGTGCAG”, for which the binding signal is 13500 fluorescence intensity (a.u.).

“TGTCTCTATCGATCGATGGCCATTTTTTTCCTGCAGGCTCCGGAGTCACCTAGTGCAG”: the binding signal was 8320 fluorescence intensity (a.u.).

As to “GCTTAGTTGACCAGTAGTTGTAATATCGCCGCTCGCTACTCGGAGTCACCTAGTGCAG”, the binding signal is 12100 fluorescence intensity (a.u.).

As for “CGCTGCGTGCCTTCTGGGTTTCTGGACGATCGGTTTTGGTCGGAGTCACCTAGTGCAG”, the binding signal is 8470 fluorescence intensity (a.u.).

Regarding “ACCCCGTGGCCCAACTCCTCTCCCGTCGGCCGTTGCTCGCCGGAGTCACCTAGTGCAG”, the binding signal is 8810 fluorescence intensity (a.u.).

With “TTCAGCTTCAGGGTGGGCTCAAATGTTATTGCCACTGACTCGGAGTCACCTAGTGCAG”, the binding signal is 11500 fluorescence intensity (a.u.).

Take “CTTTTTTTTTTATCTATCTAGTACGACAGTAGTTGTTTTTCGGAGTCACCTAGTGCAG”: the binding signal is 8580 fluorescence intensity (a.u.).

Turning to “CACCGCCTCTCTCTCCGACGCGGCGGCGGCGCCGGCGCCGCGGAGTCACCTAGTGCAG”, the binding signal was 8410 fluorescence intensity (a.u.).

For the sequence “TAACCCTAACTTACCCTTGTATCCTGCATCTTCCTAATCACGGAGTCACCTAGTGCAG”, the binding signal is 8350 fluorescence intensity (a.u.).

As for “TCCTCACTCTGCTTCCTTGTTTTCTCTTTCTTTTTCTTTTCGGAGTCACCTAGTGCAG”, the binding signal is 13500 fluorescence intensity (a.u.).

On to “CATCTTCATTCTGGTTTTTTTCTGGTCCAACCATCGGCCTCGGAGTCACCTAGTGCAG”, for which the binding signal is 11100 fluorescence intensity (a.u.).

Consider “GGGGAGTATACGGCAAGGGAGTGTGCTGTGTGTGGTCTGACGGAGTCACCTAGTGCAG”, for which the binding signal was 9320 fluorescence intensity (a.u.).

Take “TCTTGTACTCACTTTTTTTCTTCTTCTCATTTTTTTGTATCGGAGTCACCTAGTGCAG”: the binding signal was 8650 fluorescence intensity (a.u.).

With “ATCCATCCCGCACTGTAACACTGAAATTTCGCCCAAAAAACGGAGTCACCTAGTGCAG”, the binding signal was 10200 fluorescence intensity (a.u.).

Take “ACGACCACCGCTCACCGTTGTAGGGTTCAACGCCGCCGCCCGGAGTCACCTAGTGCAG”: the binding signal is 11600 fluorescence intensity (a.u.).

Consider “CTTCACTGCCTTCACTTCCCTGCTCAGCTCAGCAGCTCAGCGGAGTCACCTAGTGCAG”, for which the binding signal is 8180 fluorescence intensity (a.u.).

Take “TTATATAAGTCTATTTTTTGTCCCTATATTTTTTTTATTTCGGAGTCACCTAGTGCAG”: the binding signal was 8370 fluorescence intensity (a.u.).

Regarding “GTGTTGCCGTTGTATGGGCATATGCATTCTTCCTCACTGCCGGAGTCACCTAGTGCAG”, the binding signal is 8310 fluorescence intensity (a.u.).

In the case of “ACTAATGATCTATTATACCTTTGTCCTGCGTTAACCAAAGCGGAGTCACCTAGTGCAG”, the binding signal is 9050 fluorescence intensity (a.u.).

“CCCCAACTCCGATCTCGTCTAAATATCTCTCTCTCTCGTCCGGAGTCACCTAGTGCAG”: the binding signal is 8820 fluorescence intensity (a.u.).

“CGTCTCGTGTCTTCTCGTCTCGACCCATCCATCCATCCCACGGAGTCACCTAGTGCAG”: the binding signal was 8570 fluorescence intensity (a.u.).

Take “GTCTCCCACGTGTCCCATTCGCATCCGATTTGGCAATCTCCGGAGTCACCTAGTGCAG”: the binding signal is 10300 fluorescence intensity (a.u.).

In the case of “TTTGTGAAATTTACTCTTTTCTTTTCGGTTGTTTGCTTTTCGGAGTCACCTAGTGCAG”, the binding signal is 10200 fluorescence intensity (a.u.).

Take “AACTGCACTTCCATCCACCTGATGTCGAGTTCCAGAAGGACGGAGTCACCTAGTGCAG”: the binding signal is 8090 fluorescence intensity (a.u.).

Consider “CAAAAGAGATGTGGTTAGCGTTGACCCCGTTGACTCGAAGCGGAGTCACCTAGTGCAG”, for which the binding signal was 15200 fluorescence intensity (a.u.).

With “TCCTATCCACATATCCGACGAGTTAAAACAAGCATTCTCTCGGAGTCACCTAGTGCAG”, the binding signal was 8470 fluorescence intensity (a.u.).

Turning to “TCACCGTCGCTGTTCGCCTTTGCACGGACGTCACCACCACCGGAGTCACCTAGTGCAG”, the binding signal was 13700 fluorescence intensity (a.u.).

Consider “GACGACATTTATGTTTCGGCATGTGCATACTTCTGTTGTCCGGAGTCACCTAGTGCAG”, for which the binding signal is 8670 fluorescence intensity (a.u.).

For “GCCGCCGCCGCTGCCTCCTTCCCGCGCAGCGCAGCGCGCGCGGAGTCACCTAGTGCAG”, the binding signal was 8080 fluorescence intensity (a.u.).

Take “TTCCAACTACCTAGCTCAGCTTAGTCTCTGGTTGACCATTCGGAGTCACCTAGTGCAG”: the binding signal is 8450 fluorescence intensity (a.u.).

In the case of “CAAAGCAACCATGTATTTGTGACTCCTCTCCGATATTTTCCGGAGTCACCTAGTGCAG”, the binding signal is 8440 fluorescence intensity (a.u.).

Take “ATCTCGTCCTTCTATACGATTCATTAGCTTAAGGGCAATTCGGAGTCACCTAGTGCAG”: the binding signal is 8240 fluorescence intensity (a.u.).

As for “GTGTGTGAAATTGATGTTTTGACTGGAACTTCTCTAGCGTCGGAGTCACCTAGTGCAG”, the binding signal was 8460 fluorescence intensity (a.u.).

For “GCTACACCATTTGCTGCTCATCTTGTCAACCATGCATAACCGGAGTCACCTAGTGCAG”, the binding signal was 8260 fluorescence intensity (a.u.).

Regarding “GAGTGTAACGGGTGGGGTGGTTTGGAAGGTGATGAGGTATCGGAGTCACCTAGTGCAG”, the binding signal is 11300 fluorescence intensity (a.u.).

Take “CCCGACCCAAACCTCACCGCCGCCGTCGCCGTTGCCGCCGCGGAGTCACCTAGTGCAG”: the binding signal was 8310 fluorescence intensity (a.u.).

As for “TTCTTGTTGCTCTATGTATGGTGAATTGGCTGCAAATCTACGGAGTCACCTAGTGCAG”, the binding signal is 8120 fluorescence intensity (a.u.).

For “AGCCAGTCTCCGACCCCTTCACCAAACGATGCCACGCCGGCGGAGTCACCTAGTGCAG”, the binding signal was 8860 fluorescence intensity (a.u.).

Regarding “AAAGGCCCAACTATACTGTGCCCACATCTCAGCCCACGTACGGAGTCACCTAGTGCAG”, the binding signal was 8420 fluorescence intensity (a.u.).

For “TTTCACTTGCGCCAGATTTTTGGCTATTGTCTTTCACTTTCGGAGTCACCTAGTGCAG”, the binding signal was 8240 fluorescence intensity (a.u.).

Take “ATTCTGTTGCGTCATCATGTTCCTGTCTACAGAGCTATACCGGAGTCACCTAGTGCAG”: the binding signal was 8840 fluorescence intensity (a.u.).

For “GCCAGTGCACGGCCCACTTCCGCCGCGCCCGCGCCCGCGCCGGAGTCACCTAGTGCAG”, the binding signal was 8750 fluorescence intensity (a.u.).
